This note sets out measurements from paper PMC10511499.

Protein sequences, listed by entry. Tags and fused reporters are not part of them. Lines headed by an entry give the natural chain unless they say otherwise; changes in a name come on top.
UniProt P36022: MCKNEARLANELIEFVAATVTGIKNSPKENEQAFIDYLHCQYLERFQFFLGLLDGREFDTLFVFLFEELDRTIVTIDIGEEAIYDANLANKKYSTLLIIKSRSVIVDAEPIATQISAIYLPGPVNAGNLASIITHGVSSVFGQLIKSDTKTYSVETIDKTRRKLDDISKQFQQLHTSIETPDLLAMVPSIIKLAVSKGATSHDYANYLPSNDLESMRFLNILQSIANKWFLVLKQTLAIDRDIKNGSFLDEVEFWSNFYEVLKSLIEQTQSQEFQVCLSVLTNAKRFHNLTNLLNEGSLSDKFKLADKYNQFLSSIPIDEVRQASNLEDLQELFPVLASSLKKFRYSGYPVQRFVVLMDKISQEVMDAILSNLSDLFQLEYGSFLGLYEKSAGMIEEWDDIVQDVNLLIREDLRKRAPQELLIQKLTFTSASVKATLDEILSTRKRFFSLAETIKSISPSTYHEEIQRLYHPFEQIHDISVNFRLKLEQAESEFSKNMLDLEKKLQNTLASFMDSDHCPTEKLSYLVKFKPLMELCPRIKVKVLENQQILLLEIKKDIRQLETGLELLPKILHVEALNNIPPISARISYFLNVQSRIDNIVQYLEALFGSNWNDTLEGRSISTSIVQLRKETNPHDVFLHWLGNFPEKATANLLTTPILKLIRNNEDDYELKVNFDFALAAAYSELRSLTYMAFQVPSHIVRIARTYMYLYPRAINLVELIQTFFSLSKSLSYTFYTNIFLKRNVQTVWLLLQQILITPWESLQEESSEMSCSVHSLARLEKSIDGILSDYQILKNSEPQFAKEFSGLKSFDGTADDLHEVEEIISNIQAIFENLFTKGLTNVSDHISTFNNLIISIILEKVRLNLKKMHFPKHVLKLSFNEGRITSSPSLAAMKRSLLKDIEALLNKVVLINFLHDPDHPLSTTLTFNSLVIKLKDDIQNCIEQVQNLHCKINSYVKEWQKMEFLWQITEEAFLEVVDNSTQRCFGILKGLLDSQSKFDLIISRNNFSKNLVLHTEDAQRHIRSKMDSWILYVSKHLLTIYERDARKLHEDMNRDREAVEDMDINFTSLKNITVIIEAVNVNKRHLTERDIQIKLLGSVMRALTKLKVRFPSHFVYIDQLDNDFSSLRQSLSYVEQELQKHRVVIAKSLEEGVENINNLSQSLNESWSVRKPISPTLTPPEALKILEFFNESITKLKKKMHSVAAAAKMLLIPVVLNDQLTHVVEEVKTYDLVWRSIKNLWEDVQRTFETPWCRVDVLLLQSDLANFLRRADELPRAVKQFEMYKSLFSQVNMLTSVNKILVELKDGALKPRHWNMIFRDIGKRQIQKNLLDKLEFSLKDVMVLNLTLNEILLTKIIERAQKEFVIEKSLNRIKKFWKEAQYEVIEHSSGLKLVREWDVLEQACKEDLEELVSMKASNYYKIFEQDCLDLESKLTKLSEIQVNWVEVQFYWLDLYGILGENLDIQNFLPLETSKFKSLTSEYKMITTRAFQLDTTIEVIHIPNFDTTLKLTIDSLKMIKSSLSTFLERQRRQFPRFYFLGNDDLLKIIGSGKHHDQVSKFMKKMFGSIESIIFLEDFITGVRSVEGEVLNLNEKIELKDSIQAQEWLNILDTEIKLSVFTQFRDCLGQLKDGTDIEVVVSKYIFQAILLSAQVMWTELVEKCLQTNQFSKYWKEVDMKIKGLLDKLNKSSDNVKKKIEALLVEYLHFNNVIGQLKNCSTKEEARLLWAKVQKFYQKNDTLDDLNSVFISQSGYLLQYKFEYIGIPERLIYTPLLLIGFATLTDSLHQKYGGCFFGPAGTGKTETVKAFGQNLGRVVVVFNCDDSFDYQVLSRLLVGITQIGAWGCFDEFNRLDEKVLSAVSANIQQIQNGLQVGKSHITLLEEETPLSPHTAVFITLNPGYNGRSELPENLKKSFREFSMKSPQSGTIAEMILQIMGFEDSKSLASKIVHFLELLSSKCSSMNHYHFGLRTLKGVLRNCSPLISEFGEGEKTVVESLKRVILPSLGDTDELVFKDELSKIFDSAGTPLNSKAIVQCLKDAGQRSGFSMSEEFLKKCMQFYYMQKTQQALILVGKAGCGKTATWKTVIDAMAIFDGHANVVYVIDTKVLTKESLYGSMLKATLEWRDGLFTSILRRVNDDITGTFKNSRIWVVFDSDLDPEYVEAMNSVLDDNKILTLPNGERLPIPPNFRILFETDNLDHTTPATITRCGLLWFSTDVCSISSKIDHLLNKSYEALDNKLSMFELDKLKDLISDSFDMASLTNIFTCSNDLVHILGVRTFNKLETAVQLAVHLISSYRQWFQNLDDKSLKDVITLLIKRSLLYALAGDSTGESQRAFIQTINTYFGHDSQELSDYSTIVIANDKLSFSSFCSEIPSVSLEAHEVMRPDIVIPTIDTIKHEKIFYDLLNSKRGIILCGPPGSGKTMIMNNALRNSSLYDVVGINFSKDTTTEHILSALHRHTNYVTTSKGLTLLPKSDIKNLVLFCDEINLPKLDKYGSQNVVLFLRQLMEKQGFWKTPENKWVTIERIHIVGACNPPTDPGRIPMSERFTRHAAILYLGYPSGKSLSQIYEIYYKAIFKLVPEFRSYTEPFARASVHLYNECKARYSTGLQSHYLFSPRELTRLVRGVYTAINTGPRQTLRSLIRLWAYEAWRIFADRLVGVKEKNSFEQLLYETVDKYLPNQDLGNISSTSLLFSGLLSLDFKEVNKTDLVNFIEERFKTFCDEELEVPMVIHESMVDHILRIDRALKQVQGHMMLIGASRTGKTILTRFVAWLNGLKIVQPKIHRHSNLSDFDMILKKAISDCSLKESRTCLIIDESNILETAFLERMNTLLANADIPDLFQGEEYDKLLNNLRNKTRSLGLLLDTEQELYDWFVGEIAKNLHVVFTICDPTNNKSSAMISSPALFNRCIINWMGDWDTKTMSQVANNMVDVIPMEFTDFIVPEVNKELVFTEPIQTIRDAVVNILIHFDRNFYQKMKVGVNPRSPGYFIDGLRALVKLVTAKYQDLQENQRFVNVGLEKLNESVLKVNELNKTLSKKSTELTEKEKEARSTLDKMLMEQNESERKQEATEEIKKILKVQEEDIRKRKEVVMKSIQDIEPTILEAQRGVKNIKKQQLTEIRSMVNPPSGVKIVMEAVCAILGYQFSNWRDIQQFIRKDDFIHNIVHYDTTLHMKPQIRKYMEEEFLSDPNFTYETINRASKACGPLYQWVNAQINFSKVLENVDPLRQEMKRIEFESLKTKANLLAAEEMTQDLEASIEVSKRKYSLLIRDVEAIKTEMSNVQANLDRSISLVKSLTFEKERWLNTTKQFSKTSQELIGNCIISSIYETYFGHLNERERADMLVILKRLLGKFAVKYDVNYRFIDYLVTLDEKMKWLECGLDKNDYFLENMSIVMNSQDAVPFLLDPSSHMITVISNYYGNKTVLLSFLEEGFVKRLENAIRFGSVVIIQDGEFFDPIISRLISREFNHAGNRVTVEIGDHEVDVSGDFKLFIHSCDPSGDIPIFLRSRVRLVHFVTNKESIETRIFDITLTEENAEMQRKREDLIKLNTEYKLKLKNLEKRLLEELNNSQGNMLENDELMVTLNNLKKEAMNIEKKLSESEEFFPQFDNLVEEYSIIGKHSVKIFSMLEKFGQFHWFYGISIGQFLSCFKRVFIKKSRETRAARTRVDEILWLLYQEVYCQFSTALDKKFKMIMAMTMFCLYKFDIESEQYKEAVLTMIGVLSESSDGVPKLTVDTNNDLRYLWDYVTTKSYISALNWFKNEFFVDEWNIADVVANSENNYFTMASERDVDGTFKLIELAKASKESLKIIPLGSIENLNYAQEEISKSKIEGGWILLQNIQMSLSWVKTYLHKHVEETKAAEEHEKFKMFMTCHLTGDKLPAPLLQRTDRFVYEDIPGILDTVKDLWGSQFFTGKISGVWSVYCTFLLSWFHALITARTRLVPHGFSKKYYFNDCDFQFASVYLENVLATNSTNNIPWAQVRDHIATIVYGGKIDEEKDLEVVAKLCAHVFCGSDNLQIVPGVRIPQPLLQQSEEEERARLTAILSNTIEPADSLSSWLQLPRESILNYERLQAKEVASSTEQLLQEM
UniProt P40960: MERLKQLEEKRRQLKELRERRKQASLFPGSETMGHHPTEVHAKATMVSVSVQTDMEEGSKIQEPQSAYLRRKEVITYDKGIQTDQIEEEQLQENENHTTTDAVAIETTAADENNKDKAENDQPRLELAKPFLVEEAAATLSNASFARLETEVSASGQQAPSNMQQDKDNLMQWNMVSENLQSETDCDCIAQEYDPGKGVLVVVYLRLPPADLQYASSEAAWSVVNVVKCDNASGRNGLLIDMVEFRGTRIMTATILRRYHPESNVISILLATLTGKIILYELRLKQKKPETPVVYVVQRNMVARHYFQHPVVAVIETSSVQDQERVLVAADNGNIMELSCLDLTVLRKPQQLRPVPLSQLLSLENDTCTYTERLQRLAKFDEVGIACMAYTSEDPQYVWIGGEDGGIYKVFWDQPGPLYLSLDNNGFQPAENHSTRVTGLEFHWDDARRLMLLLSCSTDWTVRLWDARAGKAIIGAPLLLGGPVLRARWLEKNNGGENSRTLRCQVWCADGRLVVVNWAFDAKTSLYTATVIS
UniProt Q04949: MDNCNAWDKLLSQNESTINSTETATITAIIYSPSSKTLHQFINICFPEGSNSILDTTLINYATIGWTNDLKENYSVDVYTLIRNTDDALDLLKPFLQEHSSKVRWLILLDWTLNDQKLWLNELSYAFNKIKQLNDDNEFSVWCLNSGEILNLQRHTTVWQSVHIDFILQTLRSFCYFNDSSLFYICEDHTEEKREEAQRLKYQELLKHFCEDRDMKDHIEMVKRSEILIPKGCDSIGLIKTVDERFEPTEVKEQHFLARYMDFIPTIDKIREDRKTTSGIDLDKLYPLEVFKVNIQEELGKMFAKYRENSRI
UniProt Q02647: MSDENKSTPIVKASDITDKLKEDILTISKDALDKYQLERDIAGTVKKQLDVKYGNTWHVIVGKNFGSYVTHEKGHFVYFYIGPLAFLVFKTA

No constants are given. Whether binding was seen depends on the method and setting. Where a sequence is shown, tags or fusion partners need not be part of it.

For assay [1], the target named is yeast dynein^∆ICN complex (Pac11 lacking its N-terminal 43 residues) (S. cerevisiae) (UniProt P36022+P40960+Q04949+Q02647). Kind of assay: TIRF microscopy microtubule recruitment assay; yeast proteins; dynein on taxol-stabilised microtubules held by anti-tubulin antibody; fluorescent partner flowed in, TEV buffer with 1 mM DTT, 5-10 min; intensity along microtubules; both purified.

In assay [2] the target is T1, yeast Ndl1^CC E64A R78A (S. cerevisiae) (UniProt Q06568).
T1 sequence: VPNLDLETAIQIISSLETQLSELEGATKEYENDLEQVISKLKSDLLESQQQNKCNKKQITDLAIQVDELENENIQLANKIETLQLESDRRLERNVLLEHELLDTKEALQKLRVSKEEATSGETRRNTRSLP
In words: mass photometry; yeast proteins; mixed 1:1 at 50-100 nM each, 1-2 min, measured at 10-20 nM; 50 mM Tris pH 8.0, 150 mM K-acetate; both purified.

B1: full-length yeast Ndl1 with C-terminal FLAG-SNAPf (protein, UniProt Q06568 1-189)
chain: MVPNLDLETAIQIISSLETQLSELEGATKEYENDLEQVISKLKSDLLESQQQNKCNKKQITDLEIQVDELENENIQLRNKIETLQLESDRRLERNVLLEHELLDTKEALQKLRVSKEEATSGETRRNTRSLPSQNKKMKLFKDTIKVSTTSSTLYLQNMAKTNNAARSHCNIPNTQITQSTVIATTSSV
modifications: JFX554-SNAP or JFX650-SNAP ligand on the SNAPf tag
Consider B1, for which, in assay [1], the binding entry is “no binding”.

B2: full-length yeast Pac1 with C-terminal FLAG-SNAPf (protein, UniProt P39946 1-494)
chain: MTNWQQQLPLTDTQKNELDKSVLRYLNWNYKQTVRHEHAQDYESVRHAIVTLSGFLLQESVDRQEFISNNDTSNESMVDIDELLLPKKWNSIVRLQKKIIELEQNTETLVSQIKDLNTQVSELAQFKPTTSNGTSAHNVLKWIPRNLPSCLINVESSVTSVKLHPNLPIVFVATDHGKLYAFDLFNYTIPLASLQSHTKAITSMDVLFTNYTNSSKKNYLVIVTASKDLQIHVFKWVSEECKFQQIRSLLGHEHIVSAVKIWQKNNDVHIASCSRDQTVKIWDFHNGWSLKTFQPHSQWVRSIDVLGDYIISGSHDTTLRLTHWPSGNGLSVGTGHEFPIEKVKFIHFIEDSPEIRFRTPSTDRYKNWGMQYCVSASRDRTIKIWEIPLPTLMAHRAPIPNPTDSNFRCVLTLKGHLSWVRDISIRGQYLFSCADDKSVRCWDLNTGQCLHVWEKLHTGFVNCLDLDVDFDSNVTPRQMMVTGGLDCKSNVFMR
On to B2, for which, in assay [2], the binding entry is “no binding”.

B3: yeast Nip100 coiled-coil 1 (Nip100^CC1, residues 97-377) with N-terminal eGFP (domain or fragment, UniProt P33420 97-377)
chain: EHSLLNGNAAQETIKNLQVKCESLASKLNKIKIENHELKTSVEKLSTNETVLLSKISRLDKLVKELKVENGNMKTHLDNFNHLLDASDSVMAPDLDKGTLLERSHLLQGLLDQTKLSYDKAMKVQEDLLEENTQLLEENAVLSKKISDLGLQLQQTNNTIGDLALQIEAQSKSSNIVDKLTNDNILLTSNIKALNNELEELQAKEKLDENLRITYEQLEQELRLQLSNLQSALENEKEIAGTYIEENSRLKATLESIEAKTSHKFQSLELKVNTLQEELYQ
For the molecule B3, in assay [1], the binding entry is given as “no binding”.
